# In article PMC4800418:
# By UniProt entry, the sequences of proteins in these tests, tags left out. Where a name states a change or a piece, a line headed by the entry shows the natural chain unless it says otherwise.
# UniProt B2RHE8: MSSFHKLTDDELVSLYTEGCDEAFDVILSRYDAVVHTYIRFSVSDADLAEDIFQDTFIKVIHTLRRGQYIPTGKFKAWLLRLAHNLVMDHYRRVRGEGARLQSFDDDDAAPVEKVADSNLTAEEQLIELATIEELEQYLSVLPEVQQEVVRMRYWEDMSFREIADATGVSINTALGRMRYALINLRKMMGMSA
# These are yes or no findings as the source states them, for the method shown. Binding seen in cells or lysates may run through a third protein. A result given as binding can be weak or reduced; the word gives no strength. Where a sequence is shown, tags or fusion partners need not be part of it.
# Biological target: T1, PorX (endogenous, in P. gingivalis lysate) (Porphyromonas gingivalis (endogenous in the sigP/sigP-Myc+ complement strain)) (UniProt B2RJJ3)
# T1 sequence: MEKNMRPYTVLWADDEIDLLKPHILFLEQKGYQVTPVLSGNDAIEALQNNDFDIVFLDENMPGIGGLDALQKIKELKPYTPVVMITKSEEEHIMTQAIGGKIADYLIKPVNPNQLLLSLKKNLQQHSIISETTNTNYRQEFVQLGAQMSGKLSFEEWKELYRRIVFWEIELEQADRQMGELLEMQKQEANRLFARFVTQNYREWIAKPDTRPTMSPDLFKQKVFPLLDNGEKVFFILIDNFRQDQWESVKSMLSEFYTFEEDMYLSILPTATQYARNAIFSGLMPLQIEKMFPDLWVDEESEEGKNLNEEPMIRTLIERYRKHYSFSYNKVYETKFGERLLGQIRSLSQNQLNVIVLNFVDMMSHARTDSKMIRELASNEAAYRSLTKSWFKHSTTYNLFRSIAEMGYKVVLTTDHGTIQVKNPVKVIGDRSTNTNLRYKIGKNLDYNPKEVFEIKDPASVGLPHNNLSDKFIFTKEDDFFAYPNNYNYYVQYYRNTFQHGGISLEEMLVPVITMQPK
# Experiment: co-IP; P. gingivalis lysates (BugBuster) incubated with anti-PorX antibody cross-linked to Protein G sepharose; washed 5 times with 50 mM Tris-HCl, 0.15 M NaCl, 0.05% NP-40, pH 7.5; blots with anti-SigP and anti-c-Myc
substance,measurement,value
SigP-Myc (in the sigP/sigP-Myc+ complement strain) (from UniProt B2RHE8),binding,binds
